Results: PubChem BioAssay AID493014 (National Center for Advancing Translational Sciences (NCATS), 2011)
Some of the results follow. These are further read-outs of the screen, such as a control signal, another cell line or another target. No call is given for them. The list favours compounds with an active or inconclusive main result. Potencies come from curve fits of mixed quality, noted in brackets.

Test: qHTS Assay to Find Inhibitors of Chronic Active B-Cell Receptor Signaling
Settings: ABC-DLBCL IkBa-CBG/CBR reporter, luminescence ratio (green luciferase fused to IkBa over red control in TMD8 lymphoma cells), 4 h
Procedure, shortened: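 TMD8 human ABC-DLBCL cells with doxycycline-inducible IκBα–green luciferase fusion and unfused red luciferase, in 0.5% FBS medium; compounds up to 46 uM, 4 h at 37C. Green/red luminescence ratio, filter-overlap corrected, fitted to concentration-response curves.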

[1] = measured here: CBR red luminescence, cell number
[2] = measured here: IkBa-CBG green luminescence

SMILES	AC50 [1]	AC50 [2]
COc1ccc(C(=O)Nc2ccc3ccccc3n2)c(OC)c1OC	3.16 µM [rising, partial curve]	–
CCc1ccc(S(=O)(=O)NCCc2cn3cccc(C)c3n2)s1	12.6 µM [falling, partial curve, poor fit]	–
Cc1cc(C)n(CCc2nc(-c3ccc(-c4ccccc4)cc3)cs2)n1	6.51 µM [rising, single point]	–
CC(=O)Nc1ccc2nc(NC(=O)COc3ccccc3C)sc2c1	7.94 µM [falling, partial curve]	–
CCC(=O)Nc1ccc2c(c1)ncn2-c1ccc(OC)cc1	29.1 µM [rising, single point]	–
CCC(=NCc1ccccc1)C1=C(O)C(C(=O)OC)C(C)(C)CC1=O (centres undefined)	11.2 µM [rising, partial curve, poor fit]	–
O=C(CCN1CCOCC1)Nc1ccc2c(c1)N(C(=O)CN1CCOCC1)c1ccccc1CC2	6.51 µM [falling, single point]	–
Brc1ccccc1-c1nnc(COc2cccc3cccnc23)o1	8.2 µM [falling, partial curve, poor fit]	–
COc1ccc(-c2n[nH]c(=S)o2)c(OC)c1	16.4 µM [rising, single point]	–
NC(=O)CSc1ccc(S(=O)(=O)N2CCCCC2)cn1	0.103 µM [rising, full curve, poor fit]	–
COc1cc(NC(=O)C2CCC(CNc3c(N4CCCCC4)c(=O)c3=O)CC2)cc(OC)c1 (centres undefined)	5.8 µM [rising, single point]	–
O=C(c1ccc(N2CCN(C(=O)c3ccc(F)c(F)c3)CC2)cc1)c1cccc(F)c1	0.282 µM [falling, full curve, poor fit]	–
COc1ccc(-c2nnn(CC(=O)N(CC(=O)NC3CCCC3)Cc3ccco3)n2)cc1OC	5.01 µM [rising, partial curve]	–
Cc1ccccc1Oc1ccc(-c2nc(N)nc(N)n2)cc1	11.2 µM [rising, partial curve]	–
Cc1cc(C)nc(NC(=O)C(c2ccccc2)c2ccccc2)c1	29.1 µM [falling, partial curve, poor fit]	–
CC(C)N(Cc1ccccc1)C(=O)CN1C(=O)NC2(CCCC2)C1=O	23.1 µM [rising, single point]	–
Cc1ccccc1C(=O)NCCCCc1ccccc1	10.3 µM [falling, partial curve]	–
Cc1ccc(/C=N/n2c(-c3ccc(Cl)cc3)n[nH]c2=S)o1	35.5 µM [rising, single point]	–
CCOC(=O)c1cnc2ccc(OCC)cc2c1NCCCN1CCOCC1	7.08 µM [falling, partial curve, poor fit]	–
CCN(CC)c1ccc(/C=N/NC(=O)c2ccoc2C)c(O)c1	10 µM [falling, partial curve]	–
CCC(C)(C)n1nnnc1CN1CCc2ccccc21	32.6 µM [rising, partial curve, poor fit]	–
COc1ccc(Cl)cc1NC(=O)Nc1cc(C)on1	8.91 µM [falling, partial curve]	–

SMILES	AC50 [1]	AC50 [2]
Cc1ccc(Cn2nc(C)c(C(=O)NCC(c3cccs3)N3CCOCC3)c2Cl)cc1 (centres undefined)	18.4 µM [falling, single point]	–
CCOC(=O)CC(=O)CSc1ncnc2c1cnn2-c1ccccc1	15.8 µM [falling, single point]	–
Cc1ccc(/C=N/NC(=O)c2cc(C3CC3)nc3ccccc23)o1	–	23.1 µM [falling, single point]
O=C(CC(c1ccccc1)c1ccccc1)Nc1ccc(Cl)cn1	29.1 µM [falling, single point]	–
Cc1nc(C)c(C(=O)N2CCCC(C(=O)c3ccc4ccccc4c3)C2)s1 (centres undefined)	11.2 µM [falling, partial curve]	–
N#CC1=C(S)N=C(N)C(c2nc(-c3ccccc3)cs2)C12CCCCC2 (centres undefined)	3.66 µM [falling, single point]	–
Cc1ccc(C)c(NC(=S)NNc2ccc(F)cc2F)c1	22.4 µM [falling, single point]	–
O=C1C(=O)c2c(C(=O)c3ccccc3)coc2-c2ccccc21	29.1 µM [rising, single point]	29.1 µM [falling, single point]
COc1ccc(/C=N/NC(=O)c2ccc(N(C)S(=O)(=O)c3ccccc3)cc2)c(OC)c1	35.5 µM [falling, partial curve, poor fit]	–
Clc1ccc(/C=C/c2nc3ccccc3[nH]2)cc1	1.41 µM [falling, full curve]	–
COC(=O)c1cccc(-c2noc(-c3ccccc3F)n2)c1	1.03 µM [rising, partial curve]	–
CC(=O)c1ccc(OCCCC(=O)Nc2ccc(C)c(S(=O)(=O)N(C)C)c2)cc1	2.59 µM [rising, full curve]	–
COc1ccc(NC(=O)C(C)N2c3cccc4cccc(c34)S2(=O)=O)c(OC)c1 (centres undefined)	0.794 µM [rising, full curve, poor fit]	7.08 µM [falling, partial curve, poor fit]
COc1cccc(-c2nnc(SCC(=O)N(C(C)C)C(C)C)o2)c1	32.6 µM [falling, single point]	–
Cc1ccc(C)c(SCc2noc(C(=O)NC(C)C)c2C(=O)O)c1	10 µM [falling, partial curve, poor fit]	–
CC(=O)Oc1ccccc1C1=NN(C(C)=O)C(c2ccccc2)C1 (centres undefined)	7.94 µM [falling, partial curve]	–
CC(=O)c1sc(NC(=O)C2(F)C(F)(F)C(F)(F)C(F)(F)C(F)(F)C2(F)F)nc1C	6.31 µM [falling, full curve, poor fit]	–
COc1ccc2cc(CN(Cc3cccs3)Cc3nnnn3Cc3ccccc3)c(=O)[nH]c2c1	29.1 µM [falling, single point]	–
CSc1ccccc1NC(=O)c1ccc(N2CCCC2=O)cc1	16.4 µM [falling, single point]	–
COc1ccc(/C(N)=N/OC(=O)CSc2ccc(C)cc2)cc1OC	13 µM [rising, partial curve, poor fit]	–
CC(C)(C)c1ccc(-c2conc2N)cc1	29.1 µM [rising, single point]	–
S=C(NNc1ccc2ccccc2c1)NC1CCCCC1	23.1 µM [falling, partial curve, poor fit]	–

In a second layout: four of the compounds above
SMILES,AC50 [1],AC50 [2]
COc1ccc(/C=N/NC(=O)c2ccc(N(C)S(=O)(=O)c3ccccc3)cc2)c(OC)c1,"35.5 µM [falling, partial curve, poor fit]",–
CC(=O)c1sc(NC(=O)C2(F)C(F)(F)C(F)(F)C(F)(F)C(F)(F)C2(F)F)nc1C,"6.31 µM [falling, full curve, poor fit]",–
CSc1ccccc1NC(=O)c1ccc(N2CCCC2=O)cc1,"16.4 µM [falling, single point]",–
COc1ccc(/C(N)=N/OC(=O)CSc2ccc(C)cc2)cc1OC,"13 µM [rising, partial curve, poor fit]",–

Next compounds.

SMILES	AC50 [1]	AC50 [2]
COC(=O)c1ccc(/C=C/c2ccc3cccc(OC)c3n2)cc1	0.0461 µM [falling, full curve]	–
O=c1cc(O)nc[nH]1	7.94 µM [falling, partial curve, poor fit]	–
O=C(O)c1ccc(S(=O)(=O)c2ccccc2C(=O)O)c([N+](=O)[O-])c1	0.891 µM [falling, full curve]	–
COc1ccc(-c2oc3ccccc3c2C#CC(C)(C)O)cc1	23.1 µM [falling, single point]	25.9 µM [rising, partial curve, poor fit]
O=S(=O)(/N=C(/c1ccccc1)N1CCOCC1)c1ccc(F)cc1F	2.06 µM [rising, full curve]	–
Cc1ccc(OCCOCCOc2ccc(Br)cc2/C=N\NC(=O)c2ccncc2)cc1	2.91 µM [rising, partial curve, poor fit]	29.1 µM [falling, single point]
CCOC(=O)c1csc(NC(=O)CSc2nnc(C3CC3)n2C)n1	0.103 µM [falling, full curve]	–
O=C(CCN1C(=O)C2CC=CCC2C1=O)Nc1nc(-c2ccc(F)c(F)c2)cs1 (centres undefined)	9.2 µM [rising, partial curve]	–
CCN(CC)S(=O)(=O)c1ccc2c3c(cccc13)C(=O)S2	35.5 µM [rising, partial curve, poor fit]	–
O=C(CSC1=NCCS1)NC(c1ccccc1)c1ccccc1	–	32.6 µM [falling, partial curve, poor fit]
COCC(=O)Nc1cc(C(=O)NCCc2ccccc2)ccc1Cl	13 µM [falling, partial curve]	–
c1ccc(C(c2nnnn2C2CCCCC2)N2CCc3ccccc3C2)nc1 (centres undefined)	0.891 µM [rising, full curve, poor fit]	–
CC(=O)c1ccc(NC(=S)N2CCCCCC2)cc1	17.8 µM [rising, single point]	–
C=CCOc1c(Br)cc(/C=N/Nc2ccc(C(=O)O)cc2)cc1OCC	0.013 µM [falling, full curve, poor fit]	–
O=C(OCC(=O)N1CCOCC1)c1ccc2[nH]c3c(c2c1)CCCC3	5.62 µM [rising, single point]	–
CCN(CC(=O)NCc1ccccn1)S(=O)(=O)c1cc(Cl)ccc1Cl	29.1 µM [rising, single point]	–
CC(C)c1ccc(O)c(NC(=S)NC(=O)CCc2ccccc2)c1	12.6 µM [rising, partial curve, poor fit]	–
CCOC(=O)C1C(c2ccc(O)c(OC)c2)NC(=S)NC1(O)C(F)(F)F (centres undefined)	25.9 µM [rising, partial curve, poor fit]	–
CSc1ccc(CN(C)CC(=O)Nc2cccc(Br)c2)cc1	23.1 µM [falling, single point]	–
O=C1OCCC1Sc1nc2ccccc2s1 (centres undefined)	0.82 µM [falling, full curve, poor fit]	–
CC(C)n1c(SCC(=O)Nc2ccccc2)nc2c1c(=O)n(C)c(=O)n2C	–	5.17 µM [falling, partial curve, poor fit]
